Some entries repeat one wording, which the source may state once for all of them.
experiment: Color tone evaluation of coloring compound applied on CLC color copy paper (chroma c* at L*=88); details: c* value in L*=88; 0.04 mol/L solution in tetrahydrofuran/cyclohexanone applied on CLC color copy paper
Description: A coloring compound was dissolved in tetrahydrofuran/cyclohexanone (=1/1 (v/v)) to prepare a 0.04 mol/L solution, which was then filtered with a filter (Φ0.2 μm). The prepared coloring compound solution was applied on CLC color copy paper (manufactured by Canon Inc.) by means of an applicator (0.1 mm). Subsequently, a solution in which part of the coloring compound solution was diluted 2-fold was prepared and applied in the same manner. This operation was repeated to prepare a color tone evaluation sample. The sample was then air-dried overnight and analyzed by using SpectroLino (manufactured by Gretag Machbeth). Optical density and chromaticity (L*, a*, b*) were determined on the basis of the L*a*b* color system. Chroma (c*) was calculated according to the following equation on the basis of measurements of the color characteristics. Chroma(c*)=√{square root over ({(a*)^2+(b*)^2})}{square root over ({(a*)^2+(b*)^2})}
The evaluation was performed as below.
For the same L* value, a larger c* value can be said to indicate a better color tone. The color tone was evaluated using the value of c* in L*=88.
A: The c* value is 80 or more.
B: The c* value is 75 or more and less than 80.
C: The c* value is less than 75.
A c* value of 75 or more in L*=88 was determined to indicate a good color tone.

Compound | Color Tone
CCCCC(CC)Cn1c(O)c(/N=N/c2ccc(F)cc2[N+](=O)[O-])c(C)c(C(N)=O)c1=O (centres unmarked) [Compound (6)] | B (The c* value is 75 or more and less than 80.)
CCCCC(CC)Cn1c(O)c(N=Nc2ccccc2[N+](=O)[O-])c(C)c(C(=O)NC2CCCC2)c1=O (centres unmarked) [(17)] | A (The c* value is 80 or more.)
CCCCC(CC)Cn1c(O)c(N=Nc2ccc(C(F)(F)F)cc2[N+](=O)[O-])c(C)c(C(=O)NCc2ccccc2)c1=O (centres unmarked) [(18)] | A (The c* value is 80 or more.)
CCCCC(CC)Cn1c(O)c(/N=N/c2ccccc2[N+](=O)[O-])c(C)c(C(N)=O)c1=O (centres unmarked) [Compound (4)] | A (The c* value is 80 or more.)
CCCCC(CC)Cn1c(O)c(N=Nc2cc(F)c(F)cc2[N+](=O)[O-])c(C)c(C(N)=O)c1=O (centres unmarked) [(7)] | B (The c* value is 75 or more and less than 80.)
CCCCC(CC)Cn1c(O)c(/N=N/c2ccc(C(F)(F)F)cc2[N+](=O)[O-])c(C)c(C(=O)NC(C)(C)C)c1=O (centres unmarked) [Compound (5)] | A (The c* value is 80 or more.)
CCCCC(C)(CC)NC(=O)c1c(C)c(N=Nc2ccc(C(F)(F)F)cc2[N+](=O)[O-])c(O)[nH]c1=O (centres unmarked) [(14)] | A (The c* value is 80 or more.)
CCn1c(O)c(N=Nc2ccc(C(F)(F)F)cc2[N+](=O)[O-])c(-c2ccccc2)c(C(=O)NC(C)(C)C)c1=O [(13)] | A (The c* value is 80 or more.)
Cc1c(N=Nc2ccccc2[N+](=O)[O-])c(O)n(-c2ccccc2)c(=O)c1C(N)=O [(15)] | A (The c* value is 80 or more.)
Cc1c(N=Nc2ccccc2[N+](=O)[O-])c(O)n(Cc2ccccc2)c(=O)c1C(N)=O [(16)] | A (The c* value is 80 or more.)
CCCCC(CC)Cn1c(O)c(N=Nc2ccc(C(F)(F)F)cc2[N+](=O)[O-])c(C)c(C(N)=O)c1=O (centres unmarked) [(12)] | A (The c* value is 80 or more.)
CCCCC(CC)Cn1c(O)c(/N=N/c2ccccc2[N+](=O)[O-])c(C)c(C#N)c1=O (centres unmarked) [Comparative Compound (1), reference compound] | C (The c* value is less than 75.)
CCCCC(CC)Cn1c(O)c(N=Nc2c([N+](=O)[O-])cc(C(F)(F)F)cc2[N+](=O)[O-])c(C)c(C(N)=O)c1=O (centres unmarked) [(9)] | A (The c* value is 80 or more.)
CCCCC(CC)Cn1c(O)c(N=Nc2c([N+](=O)[O-])cc(F)c(F)c2F)c(C)c(C(N)=O)c1=O (centres unmarked) [(8)] | B (The c* value is 75 or more and less than 80.)
CCn1c(O)c(/N=N/c2ccccc2[N+](=O)[O-])c(C)c(C(N)=O)c1=O [(2), reference compound] | B (The c* value is 75 or more and less than 80.)
CCCCC(CC)Cn1c(O)c(N=Nc2c(Br)cc(C(F)(F)F)cc2[N+](=O)[O-])c(C)c(C(N)=O)c1=O (centres unmarked) [(10)] | A (The c* value is 80 or more.)
CCCCC(CC)Cn1c(O)c(N=Nc2ccc(C#N)cc2[N+](=O)[O-])c(C)c(C(N)=O)c1=O (centres unmarked) [(11)] | A (The c* value is 80 or more.)

Reference: patent US8211606B2, “Coloring compound, yellow toner, sheet for heat-sensitive transfer recording, and ink” (Canon Kabushiki Kaisha, priority 2007, dated 2012)
